Laboratory results: PubChem BioAssay AID1259405 (NCATS, 2018)
This is an unselected part of about 50,000 reagents tested. Over the whole deposit, about 4,000 (8%) were called active. 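Mouse siRNA library applied to hamster cells; one well for each siRNA.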 Reagents against one gene are numbered here.

- Screen: 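Knock-downs that lift recombinant protein yield in hamster ovary cells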 (primary screen)
- Cell system: Chinese hamster CHO-K1 ovary cells with stable secreted eGFP expression
- Knock-down reagent: single siRNA against mouse genes, 0.8 pmol siRNA per well (2 µl of 400 nM stock)
- Time to read-out: 3 days
- Measurement: 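Per-well intracellular GFP measured by laser scanning cytometry, plus viability from ATP luminescence, each relative to plate median of non-targeting control wells, in %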
- Scale: GFP, % of control: higher = more GFP per well, higher productivity; viability (ATP), % of control: higher = more viable cells (more ATP)
- Rule for the call: 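Called active when intracellular GFP, relative to negative control, is at or above 120%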

Isg20l2 (interferon stimulated exonuclease gene 20-like 2) #1
- GFP, % of control: 47.5
- viability (ATP), % of control: 45.7
- call: inactive

Isg20l2 (interferon stimulated exonuclease gene 20-like 2) #2
- GFP, % of control: 57.8
- viability (ATP), % of control: 70
- call: inactive

Isg20l2 (interferon stimulated exonuclease gene 20-like 2) #3
- GFP, % of control: 76.3
- viability (ATP), % of control: 86.4
- call: inactive

Gpr141 (G protein-coupled receptor 141) #1
- GFP, % of control: 168
- viability (ATP), % of control: 58.5
- call: active

Gpr141 (G protein-coupled receptor 141) #2
- GFP, % of control: 75.2
- viability (ATP), % of control: 75.5
- call: inactive

Gpr141 (G protein-coupled receptor 141) #3
- GFP, % of control: 88.5
- viability (ATP), % of control: 85.2
- call: inactive

Gip (gastric inhibitory polypeptide) #1
- GFP, % of control: 36.9
- viability (ATP), % of control: 28.8
- call: inactive

Gip (gastric inhibitory polypeptide) #2
- GFP, % of control: 23.9
- viability (ATP), % of control: 45.4
- call: inactive

Gip (gastric inhibitory polypeptide) #3
- GFP, % of control: 58.4
- viability (ATP), % of control: 42.8
- call: inactive

Klre1 (killer cell lectin-like receptor family E member 1) #1
- GFP, % of control: 139
- viability (ATP), % of control: 40.9
- call: active

Klre1 (killer cell lectin-like receptor family E member 1) #2
- GFP, % of control: 68.6
- viability (ATP), % of control: 56.9
- call: inactive

Klre1 (killer cell lectin-like receptor family E member 1) #3
- GFP, % of control: 66.2
- viability (ATP), % of control: 61.2
- call: inactive

A230083G16Rik (RIKEN cDNA A230083G16 gene) #1
- GFP, % of control: 101
- viability (ATP), % of control: 81
- call: inactive

A230083G16Rik (RIKEN cDNA A230083G16 gene) #2
- GFP, % of control: 78.3
- viability (ATP), % of control: 49.7
- call: inactive

A230083G16Rik (RIKEN cDNA A230083G16 gene) #3
- GFP, % of control: 43.5
- viability (ATP), % of control: 59.1
- call: inactive

Lpl (lipoprotein lipase) #1
- GFP, % of control: 100
- viability (ATP), % of control: 132
- call: inactive

Lpl (lipoprotein lipase) #2
- GFP, % of control: 119
- viability (ATP), % of control: 171
- call: inactive

Lpl (lipoprotein lipase) #3
- GFP, % of control: 66.8
- viability (ATP), % of control: 84.9
- call: inactive
